{"sequences": {"note": "Protein sequences, listed by entry. Tags and fused reporters are not part of them.", "UniProt Q15561": "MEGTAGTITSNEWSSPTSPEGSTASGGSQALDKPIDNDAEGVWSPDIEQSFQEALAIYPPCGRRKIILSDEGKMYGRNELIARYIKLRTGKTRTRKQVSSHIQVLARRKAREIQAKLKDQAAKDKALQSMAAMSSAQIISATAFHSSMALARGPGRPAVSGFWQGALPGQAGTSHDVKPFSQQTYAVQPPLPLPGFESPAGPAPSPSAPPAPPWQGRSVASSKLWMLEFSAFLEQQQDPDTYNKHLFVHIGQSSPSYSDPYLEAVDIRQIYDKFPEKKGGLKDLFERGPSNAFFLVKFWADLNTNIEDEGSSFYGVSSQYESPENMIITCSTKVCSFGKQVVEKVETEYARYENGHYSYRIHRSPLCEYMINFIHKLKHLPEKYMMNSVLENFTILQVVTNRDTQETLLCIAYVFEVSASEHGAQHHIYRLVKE"}, "source": "paper PMC7566471", "about": "“A new perspective on the interaction between the Vg/VGLL1-3 proteins and the TEAD transcription factors” (Scientific Reports, 2020)", "target": "N-terminally V5-tagged wt^TEAD4 (full length) (human) (UniProt Q15561)", "assay": "co-IP; V5-TEAD4 and (FLAG)3-VGLL2 co-transfected into HEK293FT YAP/TAZ double knockout cells; V5 immunoprecipitation, anti-FLAG Western blot; similar results in wild-type HEK293FT cells", "note": "No constants are given. Whether binding was seen depends on the method and setting. In cells and extracts the contact can be indirect. A result given as binding can be weak or reduced; the word gives no strength.", "data": [{"substance": "(FLAG)3-delΩ^VGLL2 (full length with the Ω-loop deleted) (from UniProt Q8N8G2-1)", "values": [{"measurement": "binding", "result": "binds"}]}]}
